At least one compound was matched to its structure with a doubt left.
System: influenza A/Equi 2?Miami 1/63, ATCC VR517
Experiment: Virucidal assay: influenza virus exposed to CPC solutions, titrated in MDCK cell culture (Reed and Muench)
Format: cell-based, Orthomyxoviridie virus (influenza A/Equi 2)
Settings: for reduction in the titer: five minute exposure, control titers 6.5 logs/ml

CCCCCCCCCCCCCCCC[n+]1ccccc1 [CPC, Cetylpyridinium chloride] was tested, and the “reduction in the titer” value (CPC 0.025%) was “no significant reduction”, the “reduction in the titer” value (CPC 0.05%) was “no significant reduction” and the “log reduction in the presence of sera” value (CPC with 0.1% citric acid, in the presence of sera) was “same log reduction”. For the same compound, the “impact on the virus titer” value (CPC with TSP at 0.1% addition for pH adjustment) was “no significant impact” and the “impact on the virus titer” value (CPC with acetic acid at 0.1% addition for pH adjustment) was “no significant impact”.
